In patent publication US4621077A, “Pharmacologically active biphosphonates, process for the preparation thereof and pharmaceutical compositions therefrom” (Istituto Gentili S.p.A., priority 1982, dated 1986):
Where “and” joins values, the source holds several entries; their conditions need not be identical. Identical values can stand only once. Entries after “also recorded” stand apart in the source; their conditions may differ.

Assays:
[1] = in vivo; design: species or system Swiss mice; settings: mouse
Method: For this study Swiss mice, both male and female, have been utilized: during the experiment, the animals are fed according to the method with Altromin in the form of tablets. For the oral and intraperitoneal administration, there are used 5% gum arabic solutions while saline solutions of pH 4 are used for the intravenous injections.
The preliminary values of DL50 are calculated according to a graphic method. Table 1 reports the values of the DL50 in Swiss mice in mg/kg.

[2] = system: bone reabsorption and mineralization (tibia, trabecular metaphysis); design: species or system Wistar rats; settings: rat, in vivo
Method: Groups of five Wistar rats of weight 180-200 grams are treated for a period of seven days with 0.1, 1.0 and 10 mg of P/kg of the following biphosphonic acids:
The animals kept as a control were administered the solvent with NaCl. All the treatments were carried out by the subcutaneous route. […] The animals were fed with Altromine 1314 containing 1.1 g/100 g P and 250 IU/100 g of vitamin D3. On the eighth day, the animals were killed and the tibia was removed and fixed in 50% ethanol. The tibiae were then dehydrated in increasing concentration of ethanol and allowed to soak in methylmethacrylate after the addition of Plastoid N. Frontal sections were removed and cut to a thickness of 70-80 μm and then the sections were submitted to microradiography. This procedure permitted to evaluate the density of the mineral in the trabecular metaphysis according to the method of Shenk et al., Calc. Tiss. Res. 11, 196-214, 1973).
One animal per group has been evaluated.

[3] = system: patients with primary hyperparathyroidism; settings: simultaneous with decrease of calcemia
Method: The substance ABDP, aminobutanediphosphonate has been used for venous infusion, 0.5-25 mg/day dissolved in 500 cc of 5% glucose solution in the following conditions:
Eight individuals having different degrees of calcemia varying to the extent of 17-11 mg%, were treated.

[4] = system: patients with Paget's disease; settings: three patients, 4 mg or 0.5 mg per day, 8 and 21 days
Method: The substance ABDP, aminobutanediphosphonate has been used for venous infusion, 0.5-25 mg/day dissolved in 500 cc of 5% glucose solution in the following conditions: […]

[5] = system: bone reabsorption (metaphyseal bone density); assay: Metaphyseal bone density / inhibition of bone reabsorption in rats treated for 7 days; assay type: in vivo; settings: for metaphysical density: 7 days, rats
[6] = system: injection sites / skin; assay: Necrosis at the injection sites in rats (local skin toxicity)
Text: The symbol "x" represents a conventional score, that is "x" meand slight necrosis, "xx" means severe necrosis, "xxx" means very severe necrosis.

[7] = system: inhibition of the bone reabsorption

## NCCCC(O)(P(=O)(O)O)P(=O)(O)O [AHBU BP, 4-amino-1-hydroxybutan-1,1-biphosphonic acid]
[1]; iv
  LD50: 85 mg/kg
[1]; po
  LD50: > 2000 mg/kg
[2]
  effect on bone reabsorption, in words: active on the reabsorption with a result slightly superior to Cl2 MBP
  effect on mineralization, in words: no effect or only a slight effect or only an effect to a very small extent; also recorded: does not induce or induces only to a very small extent the inhibition of mineralization at high dosage
[3]
  urinary excretion of calcium: decrease of the values of the urinary excretion of calcium
[4]
  urinary excretion of hydroxyproline: normalization of the urinary excretion of hydroxyproline
[5]; 0.01 mg P/kg s.c., s.c. NaCl controls 29.72
  metaphysical density: 48.96 % volume of calcified tissue
[5]; 0.1 mg P/kg s.c., s.c. NaCl controls 29.72
  metaphysical density: 58.17 % volume of calcified tissue
[5]; 1.0 mg P/kg s.c., s.c. NaCl controls 29.72
  metaphysical density: 60.00 % volume of calcified tissue
[5]; 2.0 mg P/kg p.o., p.o. NaCl controls 28.45
  metaphysical density: 43.80 % volume of calcified tissue
[5]; rat, in vivo, listed as 4-amino-1-hydroxybutylidene-1,1-bisphosphonate
  activity on bone reabsorption / potency, in words: This higher activity is also exhibited when the drug is administered orally; also recorded: the highest inhibitory activity on bone reabsorption
[6]; 0.01 mg P/kg, 1 day
  necrosis at the injection sites: .0.
[6]; 0.01 mg P/kg, 2 day
  necrosis at the injection sites: .0.
[6]; 0.01 mg P/kg, 3 day
  necrosis at the injection sites: .0.
[6]; 0.01 mg P/kg, 4 day
  necrosis at the injection sites: .0.
[6]; 0.01 mg P/kg, 5 day
  necrosis at the injection sites: .0.
[6]; 0.01 mg P/kg, 6 day
  necrosis at the injection sites: .0.
[6]; 0.01 mg P/kg, 7 day
  necrosis at the injection sites: .0.
[6]; 0.1 mg P/kg, 1 day
  necrosis at the injection sites: .0.
[6]; 0.1 mg P/kg, 2 day
  necrosis at the injection sites: .0.
[6]; 0.1 mg P/kg, 3 day
  necrosis at the injection sites: .0.
[6]; 0.1 mg P/kg, 4 day
  necrosis at the injection sites: .0.
[6]; 0.1 mg P/kg, 5 day
  necrosis at the injection sites: .0.
[6]; 0.1 mg P/kg, 6 day
  necrosis at the injection sites: .0.
[6]; 0.1 mg P/kg, 7 day
  necrosis at the injection sites: .0.
[6]; 1 mg P/kg, 1 day
  necrosis at the injection sites: .0.
[6]; 1 mg P/kg, 2 day
  necrosis at the injection sites: .0.
[6]; 1 mg P/kg, 3 day
  necrosis at the injection sites: .0.
[6]; 1 mg P/kg, 4 day
  necrosis at the injection sites: .0.
[6]; 1 mg P/kg, 5 day
  necrosis at the injection sites: xxx and .0.
[6]; 1 mg P/kg, 6 day
  necrosis at the injection sites: xxx
[6]; 10 mg P/kg, 2 day
  necrosis at the injection sites: xxx
[6]; 10 mg P/kg, 3 day
  necrosis at the injection sites: xxx
[6]; rat, in vivo
  local / topical skin toxicity, in words: a topical skin toxicity which is lower than that of the 3-amino-1-hydroxypropylidene-1,1-bisphosphonate
[7]; human, in vivo
  clinical potency, in words: the most powerful diphosphonate for clinical use
[7]; patients
  tolerability of doses: perfectly tolerated by the patients
